Experimental data: PubChem BioAssay AID1224828 (NIAID, 2016)
Test: 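Find genes required for NF-kappaB p65 moving into the nucleus after LPS in mouse macrophages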 (primary screen). Cell system: mouse RAW264.7 G9 macrophage reporter cells (GFP-p65, Tnf promoter-mCherry). Reagents: siRNA pool against mouse genes, 100 nM. Time to read-out: 2 days siRNA transfection, then 40 min LPS before fixation. Treatment: LPS (Salmonella minnesota R595) at 10 ng/ml. Measured: 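Microscopy ratio of nuclear to perinuclear-ring GFP-p65 signal, scaled to the plate median; gene score is the average of two replicate robust z-scores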. Reading the numbers: p65 translocation robust z-score: higher = more nuclear NF-kappaB p65 after LPS than the plate median; nuclear/cytoplasmic p65 ratio: higher = more nuclear NF-kappaB p65. Active means: 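Active if robust z is above 3.3 (negative regulators) or below -1.56, the Tlr4 control median (positive regulators); activity score 50 or more; control wells not called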. Meaning of the calls: active = hit (p65 shift raised or lowered); inactive = no clear change.
The whole screen tested about 17,000 reagents; below is an unselected part. Of all reagents, 762 (4.5%) are marked active. 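Active calls include both raised and lowered p65 entry, mostly lowered; wells with fewer than 50 cells lack a z-score.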 The raw values are shown without normalisation.

Las1l — p65 translocation robust z-score = 1.12; nuclear/cytoplasmic p65 ratio, rep 1 = 1.51; nuclear/cytoplasmic p65 ratio, rep 2 = 1.45; low cell count flag = enough cells to score; outcome = inactive
Slc17a6 — p65 translocation robust z-score = 1.39; nuclear/cytoplasmic p65 ratio, rep 1 = 1.44; nuclear/cytoplasmic p65 ratio, rep 2 = 1.42; low cell count flag = enough cells to score; outcome = inactive
Henmt1 — p65 translocation robust z-score = 0.36; nuclear/cytoplasmic p65 ratio, rep 1 = 1.38; nuclear/cytoplasmic p65 ratio, rep 2 = 1.25; low cell count flag = enough cells to score; outcome = inactive
Pcdh18 — p65 translocation robust z-score = -0.85; nuclear/cytoplasmic p65 ratio, rep 1 = 1.43; nuclear/cytoplasmic p65 ratio, rep 2 = 1.22; low cell count flag = enough cells to score; outcome = inactive
B130040O20Rik — p65 translocation robust z-score = 0.39; nuclear/cytoplasmic p65 ratio, rep 1 = 1.56; nuclear/cytoplasmic p65 ratio, rep 2 = 1.67; low cell count flag = enough cells to score; outcome = inactive

No new results follow: an excerpt of the list.
Pcdh18 — p65 translocation robust z-score = -0.85; nuclear/cytoplasmic p65 ratio, rep 1 = 1.43; nuclear/cytoplasmic p65 ratio, rep 2 = 1.22; low cell count flag = enough cells to score; outcome = inactive
B130040O20Rik — p65 translocation robust z-score = 0.39; nuclear/cytoplasmic p65 ratio, rep 1 = 1.56; nuclear/cytoplasmic p65 ratio, rep 2 = 1.67; low cell count flag = enough cells to score; outcome = inactive

Further results:
Ccr1l1 — p65 translocation robust z-score = -0.01; nuclear/cytoplasmic p65 ratio, rep 1 = 1.59; nuclear/cytoplasmic p65 ratio, rep 2 = 1.78; low cell count flag = enough cells to score; outcome = inactive
Clmb — p65 translocation robust z-score = 0.26; nuclear/cytoplasmic p65 ratio, rep 1 = 1.21; nuclear/cytoplasmic p65 ratio, rep 2 = 1.45; low cell count flag = enough cells to score; outcome = inactive
Or4a72 — p65 translocation robust z-score = 1.48; nuclear/cytoplasmic p65 ratio, rep 1 = 1.8; nuclear/cytoplasmic p65 ratio, rep 2 = 1.64; low cell count flag = enough cells to score; outcome = inactive
Or52e19b — nuclear/cytoplasmic p65 ratio, rep 1 = 1.07; nuclear/cytoplasmic p65 ratio, rep 2 = 1.42; low cell count flag = fewer than 50 cells per well; well left out of scoring; outcome = inactive
Hspb8 — p65 translocation robust z-score = -0.57; nuclear/cytoplasmic p65 ratio, rep 1 = 1.85; nuclear/cytoplasmic p65 ratio, rep 2 = 1.3; low cell count flag = enough cells to score; outcome = inactive
Atp1b1 — p65 translocation robust z-score = -2.18; nuclear/cytoplasmic p65 ratio, rep 1 = 1.2; nuclear/cytoplasmic p65 ratio, rep 2 = 1.29; low cell count flag = enough cells to score; outcome = active
Or7g17 — p65 translocation robust z-score = 0.65; nuclear/cytoplasmic p65 ratio, rep 1 = 1.56; nuclear/cytoplasmic p65 ratio, rep 2 = 1.32; low cell count flag = enough cells to score; outcome = inactive
